Results are given in words; binding and its absence hold for the method and conditions named. Binding seen in cells or lysates may run through a third protein. Some entries that bind do so weakly or less than the wild type. Tags and fused reporters may be left off the sequences shown.
Molecular target: V5-tagged RE-1 silencing transcription factor (REST) (UniProt Q13127)
Test: co-IP; V5 antibody-conjugated beads mixed with lysates of HEK293FT cells transfected with pcDNA_V5 or pcDNA_REST-V5; western blot of endogenous partners; lysis buffer 50 mM Tris-HCl pH 7.4, 150 mM NaCl, 5 mM EDTA, 0.2% TritonX-100, 15 U/ml DNAse I

By UniProt entry, the sequences of proteins in these tests, tags left out.
UniProt Q13263: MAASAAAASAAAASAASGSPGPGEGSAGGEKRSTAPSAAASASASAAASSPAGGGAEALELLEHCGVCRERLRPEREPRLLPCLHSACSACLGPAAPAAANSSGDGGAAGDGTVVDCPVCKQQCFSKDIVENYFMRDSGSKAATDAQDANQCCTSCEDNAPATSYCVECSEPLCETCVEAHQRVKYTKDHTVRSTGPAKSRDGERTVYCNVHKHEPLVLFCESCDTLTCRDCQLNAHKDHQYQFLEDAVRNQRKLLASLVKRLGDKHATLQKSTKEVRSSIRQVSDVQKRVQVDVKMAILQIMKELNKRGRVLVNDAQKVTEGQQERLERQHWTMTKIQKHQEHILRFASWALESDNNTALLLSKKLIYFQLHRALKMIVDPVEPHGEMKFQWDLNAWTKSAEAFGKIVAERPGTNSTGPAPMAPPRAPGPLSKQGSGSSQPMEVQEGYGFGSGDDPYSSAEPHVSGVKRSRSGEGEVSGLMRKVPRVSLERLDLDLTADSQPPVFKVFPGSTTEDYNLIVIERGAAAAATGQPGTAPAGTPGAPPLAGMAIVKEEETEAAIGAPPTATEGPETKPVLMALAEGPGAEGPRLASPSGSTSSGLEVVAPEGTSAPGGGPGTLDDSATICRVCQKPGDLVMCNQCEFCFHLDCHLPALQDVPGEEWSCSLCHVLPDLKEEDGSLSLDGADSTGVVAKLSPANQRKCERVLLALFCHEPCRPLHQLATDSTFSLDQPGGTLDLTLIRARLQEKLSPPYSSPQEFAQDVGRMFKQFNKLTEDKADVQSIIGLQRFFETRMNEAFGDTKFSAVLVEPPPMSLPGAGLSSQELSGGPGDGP
UniProt P06748: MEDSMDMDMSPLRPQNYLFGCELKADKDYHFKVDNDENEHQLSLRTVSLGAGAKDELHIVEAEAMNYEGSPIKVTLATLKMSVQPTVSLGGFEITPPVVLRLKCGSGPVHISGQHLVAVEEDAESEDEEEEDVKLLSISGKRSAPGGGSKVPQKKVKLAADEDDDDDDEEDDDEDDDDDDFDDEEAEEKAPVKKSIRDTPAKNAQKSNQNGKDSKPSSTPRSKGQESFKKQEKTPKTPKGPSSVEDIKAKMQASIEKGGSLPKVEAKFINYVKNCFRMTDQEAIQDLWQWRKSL
UniProt P09874: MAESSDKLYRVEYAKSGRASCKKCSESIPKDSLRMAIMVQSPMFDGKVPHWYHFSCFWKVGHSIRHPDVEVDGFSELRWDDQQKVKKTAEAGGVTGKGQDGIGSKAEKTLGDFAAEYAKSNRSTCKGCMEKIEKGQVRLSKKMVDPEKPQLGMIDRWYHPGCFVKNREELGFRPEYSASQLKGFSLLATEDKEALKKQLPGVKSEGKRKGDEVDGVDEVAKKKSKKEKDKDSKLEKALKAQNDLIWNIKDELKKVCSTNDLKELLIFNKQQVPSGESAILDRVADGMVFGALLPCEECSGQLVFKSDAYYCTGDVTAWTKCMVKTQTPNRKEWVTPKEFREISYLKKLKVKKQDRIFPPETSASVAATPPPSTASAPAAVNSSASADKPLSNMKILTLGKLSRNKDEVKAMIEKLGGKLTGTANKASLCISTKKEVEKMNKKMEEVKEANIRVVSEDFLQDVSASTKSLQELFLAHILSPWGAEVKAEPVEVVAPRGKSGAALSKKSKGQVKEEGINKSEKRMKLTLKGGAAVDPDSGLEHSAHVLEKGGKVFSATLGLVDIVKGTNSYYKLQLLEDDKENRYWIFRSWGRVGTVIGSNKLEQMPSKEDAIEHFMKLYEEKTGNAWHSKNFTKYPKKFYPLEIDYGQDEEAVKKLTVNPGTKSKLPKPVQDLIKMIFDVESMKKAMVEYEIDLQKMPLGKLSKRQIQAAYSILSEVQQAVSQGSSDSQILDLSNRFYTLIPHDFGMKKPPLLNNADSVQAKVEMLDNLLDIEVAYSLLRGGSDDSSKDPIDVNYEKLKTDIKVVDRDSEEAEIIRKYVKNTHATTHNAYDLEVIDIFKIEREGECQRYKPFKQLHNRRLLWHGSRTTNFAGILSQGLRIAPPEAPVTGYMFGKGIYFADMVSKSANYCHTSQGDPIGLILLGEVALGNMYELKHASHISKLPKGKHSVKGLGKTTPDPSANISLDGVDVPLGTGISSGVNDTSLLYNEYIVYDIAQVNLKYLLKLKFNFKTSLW

Substance: Tripartite motif-containing 28 (TRIM28) (from UniProt Q13263 1-835)
- binding: binds

Substance: histone deacetylase 5 (HDAC5) (from UniProt Q9UQL6 1-1122)
- binding: binds

Substance: nucleophosmin1 (NPM1) (from UniProt P06748 1-294)
- binding: binds

Substance: poly[ADP-ribose]polymerase1 (PARP1) (from UniProt P09874 1-1014)
- binding: binds

— PMC5157023
